The list shows a part of the results. Shown are side measurements of this screen, not its main read-out; they come without a call. Most of these compounds were active or inconclusive in the main read-out, so they are no random draw. Potencies come from curve fits of mixed quality, noted in brackets.
Assay: qHTS Assay to Find Inhibitors of Chronic Active B-Cell Receptor Signaling
Conditions: ABC-DLBCL IkBa-CBG/CBR reporter, luminescence ratio (green luciferase fused to IkBa over red control in TMD8 lymphoma cells), 4 h
How it was run: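 TMD8 ABC-DLBCL cells carrying doxycycline-inducible green luciferase fused to IkappaBalpha plus unfused red luciferase were exposed to compounds (up to 46 uM) for 4 hrs at 37C. Activity came from the overlap-corrected green/red luminescence ratio.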

[1] = measured here: CBR red luminescence, cell number
[2] = measured here: IkBa-CBG green luminescence

**Q.** Which AC50 [1] does the source give for `CC(=O)n1cc(/C=N/NC(=O)c2sc(C)nc2C)c2ccccc21` here?
**A.** 0.251 µM [falling, full curve, poor fit]

**Q.** With `CCOC(=O)COn1c(=O)c(=O)n(OC)c2ccccc21` as the molecule, how does the AC50 [1] read?
**A.** 6.31 µM [falling, single point]

**Q.** For `COC(=O)/C=c1/s/c(=C(/C#N)C(=O)N2CCCCC2)n(-c2ccccc2)c1=O`, which AC50 [1] is on record?
**A.** 13 µM [falling, single point]

**Q.** For `O=C(NCC(O)c1ccccc1)c1cccc(S(=O)(=O)N2CCOCC2)c1` (stereo unspecified), which AC50 [1] is on record?
**A.** 6.51 µM [falling, partial curve, poor fit]

**Q.** For `O=C(Nc1ccccc1)N1CCCC2CCCCC21` (stereo unspecified), which AC50 [1] is on record?
**A.** 14.6 µM [falling, single point]

**Q.** With `CCC1Sc2ccc(S(=O)(=O)CCC(=O)Nc3cccc(Br)c3)cc2NC1=O` (stereo unspecified) as the molecule, how does the AC50 [1] read?
**A.** 8.91 µM [falling, partial curve, poor fit]

**Q.** For `CCCCCC(=O)N/N=C(\C)c1ccc(Cl)cc1`, which AC50 [1] is on record?
**A.** 7.08 µM [rising, partial curve, poor fit]

**Q.** For `Cc1ccc(Nc2nc(N)nc(CSc3nnnn3-c3ccccc3)n2)cc1`, which AC50 [1] is on record?
**A.** 23.1 µM [rising, single point]

**Q.** Which AC50 [1] does the source give for `CC(Cc1ccccc1)C(=O)NCCO` (stereo unspecified) here?
**A.** 20.6 µM [rising, partial curve, poor fit]

**Q.** With `CCCOc1ccc(CN(CCC#N)C(=S)NC(=O)c2ccccc2)cc1` as the molecule, how does the AC50 [1] read?
**A.** 29.1 µM [rising, single point]

**Q.** Which AC50 [1] does the source give for `Cc1ccc(Nc2nc(-c3c(C)nc4ccccn34)cs2)cc1` here?
**A.** 0.447 µM [rising, full curve, poor fit]

**Q.** What about the AC50 [2] of the same molecule?
**A.** 0.501 µM [falling, full curve, poor fit]

**Q.** For `O=C(N/N=C\c1ccc(CNS(=O)(=O)c2ccccc2)o1)C(=O)Nc1ccc(F)cc1`, which AC50 [1] is on record?
**A.** 8.2 µM [falling, partial curve]

**Q.** With `CCCCc1cc(=O)oc2cc(C)cc(OC(C)C(=O)NCc3cccnc3)c12` (stereo unspecified) as the molecule, how does the AC50 [1] read?
**A.** 25.1 µM [falling, single point]

**Q.** With `O=C(N/N=C/c1ccc(Br)s1)c1ccco1` as the molecule, how does the AC50 [1] read?
**A.** 17.8 µM [falling, partial curve]

**Q.** Which AC50 [1] does the source give for `O=C(CSC1=NS(=O)(=O)c2cc(F)ccc2N1)Nc1ccccc1` here?
**A.** 14.6 µM [falling, single point]

**Q.** With `C=CCOc1ccc2c(c1)C(=NO)c1cc(OCC=C)ccc1-2` as the molecule, how does the AC50 [1] read?
**A.** 5.17 µM [rising, partial curve, poor fit]

**Q.** With `COc1ccc(CN(C)C(=O)CC(c2ccccc2)c2ccccc2)cc1` as the molecule, how does the AC50 [1] read?
**A.** 35.5 µM [falling, single point]

**Q.** With `C=CCNc1nc(C(=O)OC(C)C(=O)c2ccc(C)cc2)cs1` (stereo unspecified) as the molecule, how does the AC50 [1] read?
**A.** 9.2 µM [rising, partial curve, poor fit]

**Q.** For `CC(C)c1ccc(S(=O)(=O)N2CCN(C(=O)CN3C(=O)c4ccccc4C3=O)CC2)cc1`, which AC50 [1] is on record?
**A.** 2.91 µM [rising, partial curve, poor fit]

**Q.** Which AC50 [1] does the source give for `CCOc1ccc(C2C(=O)N(C3CCCCCC3)CC(=O)N2CCc2ccc(Cl)cc2)cc1OC` (stereo unspecified) here?
**A.** 0.562 µM [rising, full curve, poor fit]

**Q.** For `COc1ccc2[nH]cc(CCn3ccc(O)c(C/C=C/c4ccccc4)c3=O)c2c1`, which AC50 [1] is on record?
**A.** 22.4 µM [falling, partial curve, poor fit]

**Q.** For `COc1ccc(-c2cc(C(=O)N3CCCc4ccccc43)no2)cc1`, which AC50 [1] is on record?
**A.** 22.4 µM [falling, single point]

**Q.** For `CCOC(=O)c1c(N)nn(C(=O)CC)c1-c1ccccc1`, which AC50 [1] is on record?
**A.** 11.6 µM [falling, partial curve, poor fit]

**Q.** Which AC50 [2] does the source give for `COc1ccc(/C=C/C(=O)c2cc(F)ccc2OC(=O)c2ccc(OC)c(OC)c2)cc1OC` here?
**A.** 16.4 µM [falling, partial curve]

**Q.** For `O=C(Cn1nc(-c2cccc(Cl)c2)ccc1=O)NCC1COCCO1` (stereo unspecified), which AC50 [1] is on record?
**A.** 2.31 µM [falling, partial curve, poor fit]

**Q.** Which AC50 [1] does the source give for `Cc1ccccc1NC(=O)C(=O)Nc1ccccc1C` here?
**A.** 0.126 µM [falling, full curve]

**Q.** Which AC50 [1] does the source give for `CCCc1ccc(-c2ccc(/C=C/C(=O)O)cc2)nc1` here?
**A.** 0.13 µM [falling, full curve]

**Q.** For `Cc1sc2ncnc(N3CCC(C(=O)Nc4ccc(Cl)cc4Cl)CC3)c2c1C`, which AC50 [1] is on record?
**A.** 4.61 µM [rising, full curve]

**Q.** With `CCN(CC)C(=O)CSc1nnc(-c2ccccc2)o1` as the molecule, how does the AC50 [1] read?
**A.** 23.1 µM [falling, partial curve, poor fit]

**Q.** Which AC50 [1] does the source give for `CCOc1ccc(N2C(=O)C3C(C2=O)C3(c2ccccc2)c2ccccc2)cc1` (stereo unspecified) here?
**A.** 4.11 µM [falling, partial curve, poor fit]

**Q.** For `CCOC(=O)N1CCC(NC(=S)Nc2ccc3nc(N4CCN(C)CC4)cc(C)c3c2)CC1`, which AC50 [1] is on record?
**A.** 25.1 µM [falling, single point]

**Q.** With `Cc1cc(C)cc(NC(=O)c2cc(C)n(Cc3cccs3)c2C)c1` as the molecule, how does the AC50 [1] read?
**A.** 6.31 µM [falling, full curve, poor fit]

**Q.** For `O=c1cc(-c2ccc([N+](=O)[O-])cc2)nc2cc(-c3ccc(F)cc3)[nH]n12`, which AC50 [1] is on record?
**A.** 1.84 µM [falling, full curve]

**Q.** With `O=C(CSc1ccc(Cl)cc1)Nc1ccccc1N1CCN(C(=O)c2ccccc2)CC1` as the molecule, how does the AC50 [1] read?
**A.** 7.08 µM [falling, partial curve, poor fit]

**Q.** With `CC[C@]12c3[nH]c4cc(CCC(=O)N(C)C)ccc4c3CCN1C(=O)[C@@H](CC(=O)NC(C)(C)C)C[C@@H]2C(=O)N1CCN(C(=O)C2CC2)CC1` as the molecule, how does the AC50 [1] read?
**A.** 0.82 µM [rising, full curve, poor fit]

**Q.** For `CCOc1ccccc1N(C(=O)CNC(=O)c1ccco1)C(C(=O)NC1CCCC1)c1cccnc1` (stereo unspecified), which AC50 [1] is on record?
**A.** 15.8 µM [falling, single point]

**Q.** Which AC50 [1] does the source give for `O=C(Nc1ccc2c(c1)OCO2)c1cc(-c2cccc(O)c2)on1` here?
**A.** 15.8 µM [falling, partial curve, poor fit]

**Q.** Which AC50 [1] does the source give for `O=[N+]([O-])c1ccccc1S(=O)(=O)Nc1cccc(-c2ccc(N3CCOCC3)nn2)c1` here?
**A.** 29.1 µM [rising, single point]

**Q.** With `CCSc1nsc(NC(=O)Nc2ccccc2F)n1` as the molecule, how does the AC50 [1] read?
**A.** 1.41 µM [falling, full curve, poor fit]

**Q.** Which AC50 [1] does the source give for `COc1ccc2c(c1)CCCC21NC(=O)NC1=O` (stereo unspecified) here?
**A.** 2.51 µM [rising, full curve, poor fit]

— PubChem BioAssay AID493014 (National Center for Advancing Translational Sciences (NCATS), 2011)
